Laboratory results reported in publication PMC10163288.
The other results are listed elsewhere or left out.

B1: il2ra_site2_3nfp_normal_mot_HHH_b1_00660_af2_000000090_0001_40_57_H_._HHH_b2_05434_0001_0000200014_0000001_0_af2pred_0001_af2pred (protein)
chain: SSSSDREEVQRLLEEAEELRERGNPEEAERLLREASLVAYENNDYELFALVVDVFQKVMESSSSS
B2: il2ra_site2_3nfp_sap_31_mot_HHH_b2_02823_000000034_0001_1_21_H_._HHH_b1_01203_af2_0001_0000200012_0000001_0_0001_af2pred_0001_af2pred (protein)
chain: DVERELTQLARERNDQDVFSALADILRLLDEGVPPEEIEQEVEKIIKLAGLPPEIEELLREAVRE
B3: il2ra_site2_3nfp_sap_19_mot_HHH_b1_04824_000000235_0001_40_57_H_._HHH_b2_07252_0001_0000100005_0000001_0_0001_af2pred_0001_af2pred (protein)
chain: SSSSEEEREARELLEKARELIEEGNPEEAKQVLRRAAEVAREGNDPELFLLIAEVRRQLETSSSS
B4: il2ra_site2_2erj_sap_13_mot_HHH_b1_06160_000000008_0001_39_56_H_._HHH_b2_01373_0001_0000200008_0000001_0_0001 (protein)
chain: SSSSDRETKEAARELVEEAEENNDEELLRFLLRYLRRTYEETKDPDIEELLKLIERLLEELSSSS
B5: il2ra_site2_2erj_normal_mot_HHH_b2_07568_000000046_0001_18_34_H_._HHH_b1_08573_0001_0000300019_0000001_0 (protein)
chain: SSSDEEERIRELIELVEELIEEGDTEEAEKALREASELAFELGDFELFSILAELAELLARLSSSS
B6: il2ra_site1_3nfp_sap_16_mot_HHH_b1_04788_af2_000000082_0001_25_41_H_._HHH_b1_00195_0001_0000400021_0000001_0_0001 (protein)
chain: SSSSTEEREEVLRLVEELYRALRRGDEEEFRRLFEEARELAEEINSPVARMLIEELQKNGSSSSS
B7: il2ra_site2_3nfp_sap_31_mot_HHH_b2_01820_af2_000000083_0001_22_38_H_._60f0427eb812648398e5d60769f3809b_0001_0001_0000200020_0000001_0_0001_1 (protein)
chain: SSSSSDKEEAAAAQARALAERLEDPEERRELEELAEELEEKGDPELHRELARLIYEILASSSSSS
B8: il2ra_site1_3nfp_normal_mot_HHH_b1_02400_af2_000000128_0001_43_56_H_._HEEHE_3114_0001_0000100006_0000001_0 (protein)
chain: LDAEHASKMIEEALKSLGAKSFEVEVSNNEVEVTVEGDDERSEEVREAAERVAKAVGVPVEVESL
B9: il2ra_site2_3nfp_normal_mot_HHH_b1_00660_af2_000000090_0001_40_57_H_._HHH_b1_07326_af2_0001_0001200073_0000001_0_af2pred_0001_1_af2pred_swapped (protein)
chain: SSSSSSSLEELIERIEELLERGDPEEAREIVREAAHVAYELNDHEAFAILVELLNLIDSSSSSSS
B10: il2ra_site2_3nfp_sap_22_mot_HHH_b2_08086_000000129_0001_21_37_H_._HHH_b2_00706_0001_0000200021_0000001_0_0001_af2pred_0001_af2pred (protein)
chain: DVERRLFELARERNDPDVLRALLLIRKLKEEGVPPEEIEQEVEKIIKRAGLPPEIEELLREAVRE
B11: il2ra_site1_3nfp_normal_mot_HHH_b1_06312_000000199_0001_1_18_H_._HHH_b1_03473_af2_0001_0000400031_0000001_0_af2pred_dldesign_0_af2pred (protein)
chain: SSSSRERLLAAFEEASALYTAGKPEEALEALRAAEAEARAAGMNALARFLRICRENVEKLISSSS
B12: il2ra_site1_3nfp_sap_16_mot_HHH_b1_07561_af2_000000074_0001_22_38_H_._3c6e6c7a1689b1ff61bc13c65436e505_0001_1_0001_0000800023_0000001_0_0001_af2pred_0001_af2pre … (protein)
chain: SEEKYIKDIIRTLEQIPNPRVRELAEEAEELLENGDPEEALKVLKEAAELLGDPNARRLIERALN
B13: il2ra_site1_1z92_normal_mot_7d8fec69ab3f203d40951262a957afce_0001_af2_000000065_0001_53_65_H_._2dbe003d1ac158754a55d59e89b30524_0001_1_af2_0001_0000300018_00000 … (protein)
chain: SELKALLERVLDELAAENPREAVVIGQLRAKLERDPEAAARHLLRLLKVAGRPDVVAELEKLLEE
B14: il2ra_site2_2erj_sap_23_mot_9983d6beee032e3819f467d055548630_0001_1_000000194_0001_16_32_H_._bee18c9904f98e661b1e98a71a1d884a_0001_af2_0001_0000200025_0000001_0 … (protein)
chain: SSSSDLTEEADELVWRAMEDPEFIEEARELLEELLERAEERGDEEAAESIRAALRLLEWGSSSSS
B15: il2ra_site1_2b5i_normal_mot_HHH_b2_04052_af2_000000090_0001_1_15_H_._HHH_b2_00976_0001_0000100008_0000001_0_af2pred_dldesign_0_af2pred (protein)
chain: SSSSSSPERRQFDLVFRARNAAARGDYARLRELLAELRELADATDDEQLRAIAAELEARLSSSSS
B16: il2ra_site2_2erj_normal_mot_HHH_b1_08474_af2_000000004_0001_1_19_H_._HHH_b2_03419_0001_0000100001_0000001_0_af2pred_0001_af2pred (protein)
chain: SSSSSDELEELIEQAEELLEEGDHEEAFRILLEAAEIAAKNEDDETLERILRLSFEVFKSSSSSS
B17: il2ra_site2_3nfp_normal_mot_HHH_b1_00660_af2_000000090_0001_40_57_H_._HHH_b2_06895_0001_0000600025_0000001_0_af2pred_0001_af2pred_1_swapped (protein)
chain: SSSSDQEVRELLEEVEELLERGDYEEARRLLERAAELARQLGDRELILKIIELRELLDELSSSSS
B18: il2ra_site2_3nfp_normal_mot_HHH_b2_06150_000000217_0001_39_53_H_._HHH_b2_03993_af2_0001_0000700011_0000001_0 (protein)
chain: SSSSSEEEEEVEKLIEKAEELLERGNPEKAQKVLQRATHIAYRINNPRLFYLLAELLELVASSSS
B19: il2ra_site2_3nfp_normal_mot_HHH_b1_05158_000000192_0001_1_17_H_._HHH_b1_05195_0001_0000600013_0000001_0_af2pred_0001_af2pred (protein)
chain: SSSSSSDSELTFLLILLEALLEEVDDPEIRELLEEALEELREKKDPEIARKVLKEASEYLSSSSS

molecular target: il2ra, P01589; experiment: yeast display titration

Apparent Kd, inactive:
B1 no binding seen
B2 no binding seen
B3 no binding seen
B4 no binding seen
B5 no binding seen
B6 no binding seen
B7 no binding seen
B8 no binding seen
B9 no binding seen
B10 no binding seen
B11 no binding seen
B12 no binding seen
B13 no binding seen
B14 no binding seen
B15 no binding seen
B16 no binding seen
B17 no binding seen
B18 no binding seen
B19 no binding seen

Quoted at random: 2 records from the list, in no set order.
Apparent Kd, inactive:
B11 no binding seen
B18 no binding seen
